Assay [1] addresses galectin-9 (endogenous, THP-1 cells) (human (endogenous in THP-1)) (UniProt O00182). Nature of the assay: co-IP; THP-1 cells transfected with empty vector or 3xFLAG_Vamp-3, lysate (1% Brij97, 150 mM NaCl, 25 mM Tris-HCl pH 7.5, 2 mM EDTA), IP with anti-galectin-9 or goat isotype control, protein G sepharose, 4 °C, blot for FLAG and galectin-9.
In assay [2] the target is galectin-9 (endogenous, monocyte-derived dendritic cells) (human (endogenous in moDCs)) (UniProt O00182). In words: co-IP; moDC lysate (1% Brij97, 150 mM NaCl, 10 mM Tris-HCl pH 7.5, 2 mM MgCl2, 2 mM CaCl2), IP with anti-galectin-9 or isotype control, 4 °C, blot for Vamp-3 and galectin-9; resting and LPS-activated cells.

Amino acid sequences for entries named in this document (tags omitted).
UniProt Q15836: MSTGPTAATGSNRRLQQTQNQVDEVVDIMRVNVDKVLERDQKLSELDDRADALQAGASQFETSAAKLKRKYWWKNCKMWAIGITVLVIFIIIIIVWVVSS

The values that follow come from publication PMC10533640.

Results are given in words; binding and its absence hold for the method and conditions named. Binding seen in cells or lysates may run through a third protein. Some entries that bind do so weakly or less than the wild type.

Take “3 × FLAG_Vamp-3 (from UniProt Q15836 1-100)”: in assay [1], the binding entry was “binds”.

For the substance “vesicle-associated membrane protein 3 (Vamp-3) (endogenous, monocyte-derived dendritic cells) (from UniProt Q15836 1-100)”, in assay [2], the binding result is “binds”.
